This experiment in a line: qHTS Assay to Find Inhibitors of Chronic Active B-Cell Receptor Signaling. As to conditions: ABC-DLBCL IkBa-CBG/CBR reporter, luminescence ratio (green luciferase fused to IkBa over red control in TMD8 lymphoma cells), 4 h. In short, it runs like this: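 TMD8 human ABC-DLBCL cells with doxycycline-inducible IκBα–green luciferase fusion and unfused red luciferase, in 0.5% FBS medium; compounds up to 46 uM, 4 h at 37C. Green/red luminescence ratio, filter-overlap corrected, fitted to concentration-response curves.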
(In general: Quantitative high-throughput screening tests each substance at several concentrations.)

The mark [1] stands for this setting: measured here: CBR red luminescence, cell number.
Where [2] appears, read: measured here: IkBa-CBG green luminescence.

For 40 compounds, AC50 results are on record in PubChem BioAssay AID493014 (National Center for Advancing Translational Sciences (NCATS), 2011).

This is one part of the list. The main result of the screen is listed elsewhere. These columns were measured beside it and carry no call. Compounds called inactive in the main read-out are mostly missing here. The note in brackets gives the kind of curve behind each potency; many fits are weak.

A word on the AC50: it is the concentration giving half of the maximal activity seen. In the case of `Cc1cccc(N2CC(C(=O)Nc3nnc(SCCC4OCCO4)s3)CC2=O)c1` (stereo not drawn), the half-maximal activity concentration (AC50) under setting [1] is 0.398 µM [rising, full curve, poor fit]. On the same count and under the same terms, next, `CCOc1ccc(NC(=O)CN(C)C(=O)C2COc3ccccc3O2)cc1OCC` (stereo not drawn): 0.92 µM [rising, full curve, poor fit]. The same measure, in the same setting: in the case of `Cc1cc(C)c2ccc3c(C)c(C)nc3c2[nH]1` it was 5.62 µM [rising, single point]; in that of `Nc1c(N(CCC2=CCCCC2)C(=O)c2ccc([N+](=O)[O-])o2)c(=O)[nH]c(=O)n1Cc1ccccc1`, 6.51 µM [falling, full curve]. As to `CC(=O)N1CCN(c2ccc(NC(=O)c3ccc4c(c3)OCCO4)cc2Cl)CC1`, the AC50 under setting [1] is 35.5 µM [falling, single point].

`Cc1cccc(NS(=O)(=O)c2ccc(-c3cnc(C4CC4)o3)cc2)c1C`: the AC50 is, setting by setting: under setting [1], 3.16 µM [rising, partial curve]; under setting [2], 7.08 µM [falling, partial curve]. For `O=C(Nc1ccccn1)c1ccc2c(=O)n3c(nc2c1)CCCCC3`, the half-maximal activity concentration (AC50) under setting [1] is 20.6 µM [falling, partial curve, poor fit].

For the compound `O=C(Nc1cccc(S(=O)(=O)N2CCCCC2)c1)c1cccs1`, the AC50 under setting [1] was 25.1 µM [falling, single point]. The same measure, in the same setting: in the case of `FC(F)(F)c1cc(-c2ccccc2)nc(-n2cncn2)n1` it was 29.1 µM [rising, single point]; in that of `O=c1c2[nH]c3ccccc3c2ncn1CCC1=CCCCC1`, 0.631 µM [rising, full curve, poor fit]; in that of `O=C(CSc1nc2ccccc2c(=O)[nH]1)Nc1ccc([N+](=O)[O-])cc1`, 2.59 µM [rising, full curve]. Same read-out and setting: next, `Cc1cc(C)n2nc(C(=O)OCC(=O)NNC(=O)c3ccccc3)nc2n1`: 5.8 µM [rising, partial curve, poor fit]; `COc1ccc2c(c1)C1(C)CC(C)(C)N2C(=O)N1c1ccccc1` (stereo not drawn): 22.4 µM [falling, single point]. Same read-out and setting: next, `Cc1cccc(C(=O)Nc2ccc(C(=O)N3CCCCC3C)cc2)c1` (stereo not drawn): 7.08 µM [falling, full curve, poor fit]; `Cc1ccc(OCC(=O)N/N=C/c2cccc3cccnc23)cc1`: 11.2 µM [falling, single point].

As to `COc1ccc(C2=NS(=O)(=O)N(C)C(C(=O)Nc3ccc(C(C)=O)cc3)=C2)cc1OC`, under setting [1], the half-maximal activity concentration (AC50) was 35.5 µM [falling, single point]. Same read-out and setting: next, `Cc1ccc(S(=O)(=O)Nc2cc(C)c(O)cc2C)cc1`: 22.4 µM [falling, partial curve, poor fit]; `CS(=O)(=O)c1ccc(-n2c(=O)n(Cc3ccccc3)c(=O)c3[nH]cnc32)cc1`: 12.6 µM [rising, partial curve, poor fit]; `CCC(CCC(=O)Nc1nncs1)C(=O)O` (stereo not drawn): 23.1 µM [rising, single point]. As for `O=C(CSc1nc(=O)n2cc(Cl)ccc2n1)Nc1ccc2c(c1)OCCO2`, under setting [1], the AC50 is 18.4 µM [falling, partial curve].

Regarding `O=C(NCC1CCCO1)c1cc([N+](=O)[O-])ccc1Cl` (stereo not drawn), under setting [1], the AC50 is 5.01 µM [rising, full curve, poor fit]. Regarding `CC(C)(C)N=C1NN=C(c2cc3ccccc3o2)CS1`, the half-maximal activity concentration (AC50) under setting [2] was 20.6 µM [rising, partial curve, poor fit]. As to `NC(=O)c1ccc(N2CCOCC2)nc1`, the AC50 under setting [1] was 35.5 µM [rising, single point]. On to `O=C(OCCOc1ccccc1)c1cccc(S(=O)(=O)N2CCOCC2)c1`, for which the AC50 under setting [1] was 32.6 µM [rising, partial curve, poor fit]. The same measure, in the same setting: next, `O=C(NCc1ccccc1)c1cc(Sc2cccc(Cl)c2)nc2ccccc12`: 10 µM [rising, partial curve]. Still for that read-out and setting: in the case of `Cc1cc(=O)[nH]c(S/C=C/c2ccccc2)n1` it was 1.64 µM [falling, partial curve, poor fit].

Turning to `O=C(Nc1ccc2c(c1)CCCN2C(=O)c1cccs1)c1cccc(F)c1`, the concentration at half-maximal activity (AC50) under setting [1] was 35.5 µM [falling, single point]. On the same count and under the same terms, next, `CN(C)/C=C/C(=O)c1cnc(-c2cccc(Cl)c2)s1`: 7.08 µM [falling, partial curve]. `Oc1c(Cl)cc(Cl)cc1CNc1ccccn1`: the AC50 is, setting by setting: under setting [1], 12.6 µM [rising, partial curve]; under setting [2], 14.1 µM [falling, single point]. Regarding `O=C(CSc1nnc2ccccn12)Nc1cccc(-c2nc3ccccc3s2)c1`, the AC50 under setting [1] was 6.51 µM [falling, partial curve]. As for `CCOc1ccccc1NC(=O)Cn1nnc(C(=O)NCc2cccs2)c1N`, the AC50 by setting is: under setting [1], 1.41 µM [rising, full curve, poor fit]; under setting [2], 5.01 µM [falling, partial curve].

For the compound `CCOC(=O)c1c(C)oc2c1c(C(c1cccnc1)N1CCOCC1)c(O)c1ccccc12` (stereo not drawn), under setting [1], the AC50 is 1.26 µM [rising, full curve, poor fit]. Still for that read-out and setting: next, `O=C(Cc1cc(=O)[nH]c(=O)[nH]1)NCCN1CCOCC1`: 29.1 µM [rising, partial curve, poor fit]; `COc1ccc(C(=O)NCC(=O)N/N=C/c2ccc([N+](=O)[O-])s2)cc1OC`: 35.5 µM [falling, single point]. Regarding `O=C(/C=C/c1ccccc1Cl)Nc1ccc(S(=O)(=O)Nc2ncccn2)cc1`, the AC50 under setting [1] was 11.2 µM [falling, partial curve, poor fit]. With `COc1ccc(-c2cc(C(=O)N3CCN(C(c4ccccc4)c4ccccc4)CC3)no2)cc1OC`, under setting [1], the AC50 was 6.31 µM [falling, partial curve, poor fit].

Consider `O=C(Nc1cccc(C(=O)Nc2ccc(Cl)cn2)c1)c1ccccc1`, for which the AC50 under setting [1] is 14.1 µM [falling, single point]. On the same count and under the same terms, next, `O=C(CN1CCN(C(C(=O)Nc2ccc(F)cc2)c2ccccc2)CC1)NC1CC1` (stereo not drawn): 6.51 µM [rising, partial curve, poor fit]. Same read-out and setting: next, `O=C(Nc1ccccc1F)c1ccc(Cn2cc(Br)cn2)cc1`: 15.8 µM [falling, single point]; `Cc1cc(Br)ccc1SCC(=O)NCC(c1ccco1)N1CCCCC1` (stereo not drawn): 23.1 µM [falling, partial curve, poor fit].
